These are literature values, as cited in patent US12139744B2, “Stabilisation of biological samples” (QIAGEN GmbH, priority 2013, dated 2024).

In this data set the test system is cells. Conditions: cited from earlier work.

For `CC(C)[C@H](NC(=O)c1ccc2ccccc2n1)C(=O)N[C@@H](CC(=O)O)C(=O)COc1c(F)cccc1F` [Q-VD-OPh, Quinoline-Val-Asp-CH2-OPH], the Cytotoxicity entry is reported as “not toxic to cells even at extremely high concentrations”.
